The text below walks through data of PMC7995733.

Sequences of proteins named here, by UniProt entry; tags and fusion partners are left off. Residues count along the entry.
UniProt P19957, residues 61-117: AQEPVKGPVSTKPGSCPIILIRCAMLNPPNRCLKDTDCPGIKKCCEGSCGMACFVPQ

Assay [1] has as its target wild-type EGFR (construct transfected in HEK293T) (UniProt P00533). Nature of the assay: co-IP; HEK293T cells transfected with EGFR constructs, lysed at 48 h, lysates incubated with rElafin and subjected to co-IP; only the binder purified.
For assay [2], the target named is Elafin (endogenous, PLC-8024 cells) (human (endogenous in PLC-8024)) (UniProt P19957). Nature of the assay: co-IP; RIPA lysate mixed with the corresponding concentrated conditioned medium; anti-EGFR or anti-Elafin, anti-IgG as negative control, overnight at 4 °C; Protein A/G PLUS-Agarose; western blotting with anti-EGFR or anti-Elafin. (In general: In western blotting, separated proteins are transferred to a membrane and probed.)

The target of assay [3] is Elafin (overexpressed in HCC cells) (UniProt P19957). Described as above.

No constants are given. Whether binding was seen depends on the method and setting. In cells and extracts the contact can be indirect. Some entries that bind do so weakly or less than the wild type.

For “recombinant Elafin (from UniProt P19957 61-117)”, the binding result in assay [1] was “binds”.

“Epidermal growth factor receptor (endogenous, HCC cells) (from UniProt P00533 25-1210)”: the binding entry in assay [2] and in assay [3] was “binds” in each case.
